# From the supplement of paper PMC8728848
# The other results are listed elsewhere or left out.
# B1: Vd7LysM (Verticillium dahliae) (protein)
# chain: RRGPEPKYPPAAGTSSYCSYWVDYEGDKSCSRVLEDNVVVLKDFARWNPTVGADCSGIKAGNSYCVEAFGEPEPIEVTTTTRAATTTTQPTATTTTFANGIATPQPTQSGMVTNCNKFHWIAEGVSCSQVISFQKITLADFVKWNPSVKSDCSGMWAGVNVCVGVVGSSTDTAKPTTTAPSNGVVTPQPTQPSMVTNCNKFHWIAKGVTCQQVISYQKISLADFVKWNPSVLSDCSGMWAEVQVCVGVIGSTPTTLATTTTTAGNGVSTPLPTQPGMVTNCAKFHWVAKGVTCNQIYSFQKITLEQFVSYNPTVKSDCSGMQAEVQVCVGLIAGTTPTTTRPPTTTAPGNGVSTPQPTQPGMVTNCAKFHWVAKGVTCNQIYSFQKITLEQFVSFNPTVKSDCTGMQAEVNVCVGLIGGNPTPTQTGNGIATPTPIQPGMVSNCKKFHWIAQGVTCQQVISFQKITLADFVKWNTGVGSDCRTMWAETNVCVGV
# Experiments:
# Test in all cases: glycan array binding signal (z-score within array); higher = stronger binding
# Conditions in all cases: glycan notation: IUPAC condensed, linker removed
# [1] = target: Fuc(a1-3)[Gal3S(b1-4)]GlcNAc6S
# In short: (§1)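 Glycan array binding is given as a within-array Z-score, which can be read as non-binding when negative. The arrays, 3228 of them, came from the Consortium for Functional Glycomics database and were retained only where the protein sequence was available. Z-scores were averaged across arrays of the same protein sequence at different concentrations or buffers and across linkers.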
# [2] = target: Fuc(a1-3)[GalNAc(b1-4)]GlcNAc
# In short: as §1
# [3] = target: Fuc(a1-3)[GalNAc(b1-4)]GlcNAc6S
# In short: as §1
# Fuc(a1-4)GlcNAc = target: Fuc(a1-4)GlcNAc
# In short: as §1
# Fuc(b1-3)GlcNAc = target: Fuc(b1-3)GlcNAc
# In short: as §1
# Gal(a1-2)Gal = target: Gal(a1-2)Gal
# In short: as §1
# Gal(a1-3)Gal = target: Gal(a1-3)Gal
# In short: as §1
# Gal(a1-3)Gal(b1-3)GlcNAc = target: Gal(a1-3)Gal(b1-3)GlcNAc
# In short: as §1
# [4] = target: Gal(a1-3)Gal(b1-3)GlcNAc(b1-2)Man
# In short: as §1
# [5] = target: Gal(a1-3)Gal(b1-3)GlcNAc(b1-2)Man(a1-3)[Gal(a1-3)Gal(b1-3)GlcNAc(b1-2)Man(a1-6)]Man(b1-4)GlcNAc(b1-4)GlcNAc
# In short: as §1
# [6] = target: Gal(a1-3)Gal(b1-3)GlcNAc(b1-3)GalNAc
# In short: as §1
# [7] = target: Gal(a1-3)Gal(b1-3)GlcNAc(b1-6)GalNAc
# In short: as §1
# [8] = target: Gal(a1-3)Gal(b1-3)[Fuc(a1-4)]GlcNAc(b1-2)Man(a1-3)[Gal(a1-3)Gal(b1-3)[Fuc(a1-4)]GlcNAc(b1-2)Man(a1-6)]Man(b1-4)GlcNAc(b1-4)GlcNAc
# In short: as §1
# Gal(a1-3)Gal(b1-4)Glc = target: Gal(a1-3)Gal(b1-4)Glc
# In short: as §1
# Gal(a1-3)Gal(b1-4)GlcNAc = target: Gal(a1-3)Gal(b1-4)GlcNAc
# In short: as §1
# [9] = target: Gal(a1-3)Gal(b1-4)GlcNAc(b1-2)Man
# In short: as §1
# [10] = target: Gal(a1-3)Gal(b1-4)GlcNAc(b1-2)Man(a1-3)[Gal(a1-3)Gal(b1-4)GlcNAc(b1-2)Man(a1-6)]Man(b1-4)GlcNAc(b1-4)GlcNAc
# In short: as §1
# [11] = target: Gal(a1-3)Gal(b1-4)GlcNAc(b1-3)GalNAc
# In short: as §1
# [12] = target: Gal(a1-3)Gal(b1-4)GlcNAc(b1-6)GalNAc
# In short: as §1
# [13] = target: Gal(a1-3)Gal(b1-4)[Fuc(a1-3)]GlcNAc
# In short: as §1
# [14] = target: Gal(a1-3)Gal(b1-4)[Fuc(a1-3)]GlcNAc(b1-2)Man(a1-3)[Gal(a1-3)Gal(b1-4)[Fuc(a1-3)]GlcNAc(b1-2)Man(a1-6)]Man(b1-4)GlcNAc(b1-4)GlcNAc
# In short: as §1
# Gal(a1-3)GalNAc = target: Gal(a1-3)GalNAc
# In short: as §1
# [15] = target: Gal(a1-3)[Gal(a1-4)]Gal(b1-4)GlcNAc
# In short: as §1
# [16] = target: Gal(a1-4)Gal(b1-3)GlcNAc(b1-2)Man(a1-3)[Gal(a1-4)Gal(b1-3)GlcNAc(b1-2)Man(a1-6)]Man(b1-4)GlcNAc(b1-4)GlcNAc
# In short: as §1
# Gal(a1-4)Gal(b1-4)Glc = target: Gal(a1-4)Gal(b1-4)Glc
# In short: as §1
# Gal(a1-4)Gal(b1-4)GlcNAc = target: Gal(a1-4)Gal(b1-4)GlcNAc
# In short: as §1
# [17] = target: Gal(a1-4)Gal(b1-4)GlcNAc(b1-2)Man(a1-3)[Gal(a1-4)Gal(b1-4)GlcNAc(b1-2)Man(a1-6)]Man(b1-4)GlcNAc(b1-4)GlcNAc
# In short: as §1
# [18] = target: Gal(a1-4)Gal(b1-4)GlcNAc(b1-3)Gal(b1-4)Glc
# In short: as §1
# Gal(a1-4)GlcNAc = target: Gal(a1-4)GlcNAc
# In short: as §1
# Gal(a1-6)Glc = target: Gal(a1-6)Glc
# In short: as §1
# Gal(b1-2)Gal = target: Gal(b1-2)Gal
# In short: as §1
# Gal(b1-3)Gal = target: Gal(b1-3)Gal
# In short: as §1
# Gal(b1-3)Gal(b1-4)GlcNAc = target: Gal(b1-3)Gal(b1-4)GlcNAc
# In short: as §1
# Gal(b1-3)GalNAc = target: Gal(b1-3)GalNAc
# In short: as §1
# [19] = target: Gal(b1-3)GalNAc(a1-3)[Fuc(a1-2)]Gal(b1-4)Glc
# In short: as §1
# [20] = target: Gal(b1-3)GalNAc(a1-3)[Fuc(a1-2)]Gal(b1-4)GlcNAc
# In short: as §1
# Gal(b1-3)GalNAc(b1-3)Gal = target: Gal(b1-3)GalNAc(b1-3)Gal
# In short: as §1
binder,measurement,setting,value
B1,glycan array binding signal (z-score),[1],1.04
same,glycan array binding signal (z-score),[2],0.317
same,glycan array binding signal (z-score),[3],-0.031
same,glycan array binding signal (z-score),Fuc(a1-4)GlcNAc,0.351
same,glycan array binding signal (z-score),Fuc(b1-3)GlcNAc,-0.78
same,glycan array binding signal (z-score),Gal(a1-2)Gal,-1.84
same,glycan array binding signal (z-score),Gal(a1-3)Gal,-1.18
same,glycan array binding signal (z-score),Gal(a1-3)Gal(b1-3)GlcNAc,-0.163
same,glycan array binding signal (z-score),[4],0.613
same,glycan array binding signal (z-score),[5],-0.666
same,glycan array binding signal (z-score),[6],0.041
same,glycan array binding signal (z-score),[7],0.852
same,glycan array binding signal (z-score),[8],-0.823
same,glycan array binding signal (z-score),Gal(a1-3)Gal(b1-4)Glc,0.539
same,glycan array binding signal (z-score),Gal(a1-3)Gal(b1-4)GlcNAc,-0.11
same,glycan array binding signal (z-score),[9],-0.674
same,glycan array binding signal (z-score),[10],-0.003
same,glycan array binding signal (z-score),[11],-0.765
same,glycan array binding signal (z-score),[12],0.551
same,glycan array binding signal (z-score),[13],0.289
same,glycan array binding signal (z-score),[14],-0.432
same,glycan array binding signal (z-score),Gal(a1-3)GalNAc,-0.371
same,glycan array binding signal (z-score),[15],-0.317
same,glycan array binding signal (z-score),[16],0.911
same,glycan array binding signal (z-score),Gal(a1-4)Gal(b1-4)Glc,3.04
same,glycan array binding signal (z-score),Gal(a1-4)Gal(b1-4)GlcNAc,0.037
same,glycan array binding signal (z-score),[17],0.593
same,glycan array binding signal (z-score),[18],-0.7
same,glycan array binding signal (z-score),Gal(a1-4)GlcNAc,0.386
same,glycan array binding signal (z-score),Gal(a1-6)Glc,-1.58
same,glycan array binding signal (z-score),Gal(b1-2)Gal,0.078
same,glycan array binding signal (z-score),Gal(b1-3)Gal,-0.192
same,glycan array binding signal (z-score),Gal(b1-3)Gal(b1-4)GlcNAc,0.537
same,glycan array binding signal (z-score),Gal(b1-3)GalNAc,-0.354
same,glycan array binding signal (z-score),[19],-0.263
same,glycan array binding signal (z-score),[20],1.36
same,glycan array binding signal (z-score),Gal(b1-3)GalNAc(b1-3)Gal,0.702

# Looked up one by one from the entries so far:
binder,measurement,setting,value
B1,glycan array binding signal (z-score),Gal(b1-3)GalNAc(b1-3)Gal,0.702
same,glycan array binding signal (z-score),[19],-0.263
